# Results of single-concentration screens

The filed quantity is “Percent Effect” (%). How 0% and 100% were set is not recorded. Most values in the screen are low, and negative values occur. Compounds were drawn at random from those tested, without regard to their results.

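Phenotypic screen: M. tuberculosis growth, cholesterol and DPPC medium, 4 days; the read-out is not stated. Tested at 500 µM. The record gives no direction; compounds that gave an IC50 in retests scored well above the rest, so higher reads as more growth inhibition. About 18,000 compounds were tested under these conditions; 5% (about 900) showed 50% or more at least once.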

compound,effect
CC(C(=O)Nc1cccc(-c2nccs2)c1)S(C)(=O)=O (configuration not stated),-2.507%
CS(=O)(=O)CCCNc1ccccc1F,-3.029%
O=C(CSc1nnnn1Cc1cccs1)NC1CC1,49.69%
Cc1cc(=O)[nH]c(C(C)(C)N)n1,-1.52%
Nc1ncn(Cc2ccccn2)n1,-0.2933%
COc1ncccc1CN(C)C(=O)c1ccccc1F,45.11%
CCCNC(=O)CNC(=O)Cn1nc(C)c(Cl)c1C,-3.951%
O=C(NCC1(O)CCOC1)c1coc2ccccc12 (configuration not stated),8.954%
CNc1cc(CN(C)Cc2ccco2)ccn1,18.66%
CCNC(=O)C(C)NS(=O)(=O)c1ccc(OC)cc1 (configuration not stated),1.154%
CN(c1ccccc1C(N)=O)S(=O)(=O)c1cccs1,-16.59%
CCc1noc(CN2CCSCC2)n1,12.35%
CC(C)(C)CCOc1cnccc1CN,-15.89%
COc1cccc(C(=O)N2CCC(O)(C(F)(F)F)C2)c1 (configuration not stated),26.83%
N[C@@H]1CC[C@@H]1NC(=O)CCn1cc(Cl)cn1,0.6575%
CCN(Cc1cccc(F)c1)C(=O)CC1(N)CCC1,-7.791%
COc1cccc(C(=O)NCCC2=CCCN(C)C2)c1,-11.61%
OC1(CNCc2ccccn2)CCc2ccccc21 (configuration not stated),20.59%
COCC(=O)NCCc1noc(-c2ccccc2)n1,5.937%
CN(CC(=O)NCCC#N)Cc1ccccc1Cl,0.8093%
C[C@@H]1CN(C(=O)c2ccc(=O)[nH]c2)C[C@]1(C)O,-16.32%
CN(C)S(=O)(=O)c1ccc(-c2csc(N)n2)cc1,26.9%
Cc1cccc2c(=O)[nH]cnc12,-5.301%
CN(Cc1ccco1)C(=O)NCc1cscn1,25.83%
C[C@H](c1ccc(Cl)cc1)n1c(CCN)n[nH]c1=O,9.492%
COCC(=O)N1CCCn2ccnc2C1C1CCCC1 (configuration not stated),-0.9024%
C=C(Br)CN1CCN(C(=O)CN2CCCC2)CC1,-26.6%
NCc1ccccc1CN1CCCC1CO (configuration not stated),-2.963%
Cc1ccc(-c2nnc(SCCC(N)=O)n2C)cc1,-10.59%
CN(CC(=O)N1CCOCC1)c1nc(C(C)(C)C)ns1,21.4%
COC(=O)C1CCCN(C(=O)Nc2ccccc2)C1 (configuration not stated),42.6%
Cc1cnn(CCNc2cc(C)nc(N)n2)c1,17.53%
COc1ccc(C(=O)N(C)CCn2cccn2)cc1,20.12%
CS(=O)(=O)c1ccncc1N,-9.367%
CCCNC(=O)CC1Sc2ccccc2NC1=O (configuration not stated),-14.68%
Nc1ccn(CCCN2CCCC2)n1,-16.18%
CC(=O)c1c(SCC(=O)NC2CC2)nc(=O)[nH]c1C,9.544%
CSC(C)C(=O)N(C)CC(=O)NC(C)C (configuration not stated),9.203%
CC(CNC(=O)NCc1ccncc1)N(C)C1CC1 (configuration not stated),0.03924%
FC(F)Oc1cccc(N2CCNCC2)c1,49.65%
COc1ccc(F)cc1N1CCNCC1,11.25%
CN(CCC1CCCO1)Cc1ccc(N(C)C)nc1 (configuration not stated),24.74%
CN(CCS(C)(=O)=O)c1nc2ccccc2[nH]1,13.05%
CCCS(=O)(=O)Nc1cccc(OCC)n1,-5.494%
O=C(Cn1cnnn1)Nc1ccc(N2CCCC2)nc1,-9.407%
CCN1CCCC1CNC(=O)c1csc(NC(C)=O)n1 (configuration not stated),-17.22%
CC(C)OCCn1cnc(C#N)c1C#N,9.824%
CCn1cc(NC(=O)c2ccc(Br)o2)c(C(N)=O)n1,6.303%
CNC(=O)CC(C)N(C)C(=O)c1ccc(O)c(OC)c1 (configuration not stated),3.218%
COc1cccc(OC)c1OCCN(C)C,16.89%
COC1CCN(CC(=O)N(C)CC(F)(F)F)CC1,-7.503%
CN(C)CC1CNCCO1 (configuration not stated),2.403%
CCSCC(C)N(C)C(=O)[C@@H](N)CC (some centres not stated),-6.901%
NCCc1ccc(CO)cc1,11.36%
NCCc1n[nH]c(=O)n1-c1ccc2c(c1)OCO2,-2.89%
CCn1cnnc1CNC(=O)C1CCC(=O)N1 (configuration not stated),2.433%
Cc1ccc(CN2CCNCC2CCO)o1 (configuration not stated),12.24%
CC(C)N1CCC(CC(=O)NCCn2cccc2)CC1,-25.44%
CN(CC(N)=O)C(=O)CCc1nc2ccccc2s1,-7.093%
COc1ccc(C2CCCN2CC(N)=O)c(OC)c1 (configuration not stated),13.71%

For reference, 3 entries once more:

{"compound": "CCN(Cc1cccc(F)c1)C(=O)CC1(N)CCC1", "effect": -7.791}
{"compound": "CS(=O)(=O)c1ccncc1N", "effect": -9.367}
{"compound": "FC(F)Oc1cccc(N2CCNCC2)c1", "effect": 49.65}

The values are deposited in ChEMBL (CHEMBL3988442, “University of Dundee, Small-Polar-MMV Screening Library” (2021)).